Data taken from the supplement of paper PMC7024190.
Where a name gives a salt, the structure may show the parent alone. The list shows a part of the results. Single values are uncertain here, since repeats match poorly.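 The cells were human embryonic kidney cells carrying a Renilla luciferase gene, driven by the HSV-TK promoter, on a plasmid put in briefly by transfection. This is the first-round screen of about ten thousand compounds, looking for ones that raise reporter output.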

Each molecule was assayed on HEK 293FT (assay: log relative Renilla luciferase luminescence (reporter expression vs reference, reference not stated) (log (base not stated)); higher = higher recombinant reporter expression). Details: 10 µM; time after transfection 48 h.

SMILES	log
CC1=Nc2ccc(Cl)cc2S(=O)(=O)N1 [Diazoxide]	-0.00861
CC(C(=O)O)c1ccc(N2Cc3ccccc3C2=O)cc1 (centres undefined) [Indoprofen]	-0.106
Oc1ccc(OCc2ccccc2)cc1 [Monobenzone]	-0.00375
C[C@H]1C[C@H]2[C@@H]3CCC4=CC(=O)C=C[C@]4(C)[C@@]3(F)[C@@H](O)C[C@]2(C)[C@@]1(O)C(=O)CO [Betamethasone]	0.0143
C[C@H](O)C(=O)Nc1c(I)c(C(=O)NC(CO)CO)c(I)c(C(=O)NC(CO)CO)c1I [Iopamidol]	-0.0109
CC(C)CC(=O)N[C@H](C(=O)N[C@H](C(=O)N[C@@H](CC(C)C)[C@@H](O)CC(=O)N[C@@H](C)C(=O)N[C@@H](CC(C)C)[C@@H](O)CC(=O)O)C(C)C)C(C)C [Pepstatin A]	-0.41
O=C1CC2(CCCC2)CC(=O)N1CCCCN1CCN(c2ncccn2)CC1 [Buspirone hydrochloride]	-1.09
CC[C@H]1OC(=O)[C@H](C)[C@@H](O[C@H]2C[C@@](C)(OC)[C@@H](O)[C@H](C)O2)[C@H](C)[C@@H](O[C@@H]2O[C@H](C)C[C@H](N(C)C)[C@H]2O)[C@](C)(O)C[C@@H](C)[C@@H]2N[C@@H](COCCOC)O[C@H]([C@H]2C)[C@]1(C)O [Dirithromycin]	0.175
Cc1cc(CC(=O)O)n(C)c1C(=O)c1ccc(Cl)cc1 [Zomepirac sodium salt]	0.157
CC1Cc2ccccc2N1NC(=O)c1ccc(Cl)c(S(N)(=O)=O)c1 (centres undefined) [Indapamide]	0.13
Nc1ccc(S(=O)(=O)Nc2ccnn2-c2ccccc2)cc1 [Sulfaphenazole]	0.0324
O=C(NCC(O)CO)c1c(I)c(C(=O)NCC(O)CO)c(I)c(N(CCO)C(=O)CO)c1I (centres undefined) [Ioversol]	-0.0164
CO/N=C(\C(=O)N[C@@H]1C(=O)N2C(C(=O)O)=C(COC(N)=O)CS[C@H]12)c1ccco1 [Cefuroxime sodium salt]	0.142
O=C1OCCN1/N=C/c1ccc([N+](=O)[O-])o1 [Furazolidone]	-0.658
O=S(=O)(O)c1cc(O)ccc1O [Ethamsylate]	0.0464
CCC(=O)O[C@]1(C(=O)CCl)[C@@H](C)C[C@H]2[C@@H]3CCC4=CC(=O)C=C[C@]4(C)[C@@]3(F)[C@@H](O)C[C@@]21C [Clobetasol propionate]	-0.174
c1ccc([C@H]2CN3CCSC3=N2)cc1 [Levamisole hydrochloride]	-0.0858
COc1ccc(C2CNC(=O)C2)cc1OC1CCCC1 (centres undefined) [Rolipram]	0.0806
NC(=O)C(c1ccccc1)(c1ccccc1)[C@@H]1CCN(CCc2ccc3c(c2)CCO3)C1 [Darifenacin hydrobromide]	-0.267
CCCNCC(O)COc1ccccc1C(=O)CCc1ccccc1 (centres undefined) [Propafenone hydrochloride]	0.0542
COc1cc([C@@H]2c3cc4c(cc3[C@@H](O[C@@H]3O[C@@H]5CO[C@@H](C)O[C@H]5[C@H](O)[C@H]3O)[C@H]3COC(=O)[C@H]23)OCO4)cc(OC)c1O [Etoposide]	-0.203
COc1ccccc1OCC(O)CN1CCN(CC(=O)Nc2c(C)cccc2C)CC1 (centres undefined) [Ranolazine]	0.0626
C[C@H]1C[C@@H]2[C@H]([C@@H](O)C[C@@]3(C)[C@H]2CC[C@]3(O)C(=O)CO)[C@@]2(C)C=CC(=O)C=C12 [Methylprednisolone, 6-alpha]	-0.0127
CC(C)NCC(O)c1ccc2ccccc2c1 (centres undefined) [Pronethalol hydrochloride]	-0.0974
Nc1nc2n[nH]nc2c(=O)[nH]1 [Azaguanine-8]	-0.0432

SMILES	log
CN(C)c1nc(N(C)C)nc(N(C)C)n1 [Altretamine]	0.0424
Cc1c(N(C)CS(=O)(=O)O)c(=O)n(-c2ccccc2)n1C [Dipyrone]	0.124
CC(NCCC(c1ccccc1)c1ccccc1)c1ccccc1 (centres undefined) [Fendiline hydrochloride]	0.0949
CC(C)NCC(O)c1ccc(O)c(O)c1 (single isomer, unassigned; (+)) [(+)-Isoproterenol (+)-bitartrate salt]	-0.048
CNCC(O)c1ccc(OC(=O)C(C)(C)C)c(OC(=O)C(C)(C)C)c1 (centres undefined) [Dipivefrin hydrochloride]	-0.0739
CCN(CC)CCc1nc(-c2ccccc2)no1 [Oxalamine citrate salt]	-0.17
CC(C)NC[C@@H](O)COc1cccc2ccccc12 [(R)-Propranolol hydrochloride]	0.0697
O=c1oc2ccccc2c(O)c1Cc1c(O)c2ccccc2oc1=O [Dicumarol]	-0.656
CN1CCN(CCCN2c3ccccc3Sc3ccc(Cl)cc32)CC1 [Prochlorperazine dimaleate]	-1.38
C[C@H](CCC(=O)O)[C@H]1CC[C@H]2[C@@H]3[C@H](O)C[C@@H]4C[C@H](O)CC[C@]4(C)[C@H]3CC[C@]12C [Chenodiol]	0.105
CN1CCN(c2c(F)cc3c(=O)c(C(=O)O)cn(CCF)c3c2F)CC1 [Fleroxacin]	-1.3
NNc1nncc2ccccc12 [Hydralazine hydrochloride]	-0.000277
CC(=O)OCC(CCn1cnc2cnc(N)nc21)COC(C)=O [Famciclovir]	-0.0312
COc1c2occc2c(OC)c2c(=O)cc(C)oc12 [Khellin]	-0.205
CC[C@H](C)C(=O)O[C@H]1CCC=C2C=C[C@H](C)[C@H](CC[C@@H]3C[C@@H](O)CC(=O)O3)[C@H]21 [Mevastatin]	-0.523
Nc1cc(C(Cl)=C(Cl)Cl)c(S(N)(=O)=O)cc1S(N)(=O)=O [Clorsulon]	0.109
Clc1ccc(COC(Cn2ccnc2)c2ccc(Cl)cc2Cl)c(Cl)c1 (centres undefined) [Miconazole]	0.116
Cc1cc(=O)n(-c2ccccc2)n1C [Antipyrine]	-0.0242
NC12CC3CC(CC(C3)C1)C2 [Adamantamine fumarate]	-0.287
Cc1ccc(-c2ncc(Cl)cc2-c2ccc(S(C)(=O)=O)cc2)cn1 [Etoricoxib]	0.00952
CC1CCc2c(N3CCC(O)CC3)c(F)cc3c(=O)c(C(=O)O)cn1c23 (centres undefined) [Nadifloxacin]	0.121
C[C@@H]1NC(=O)NC1=O [Methylhydantoin-5-(L)]	-0.148
CN1CCN(C2=Nc3cc(Cl)ccc3Nc3ccccc32)CC1 [Clozapine]	0.126
CN1CCc2cccc3c2[C@H]1Cc1ccc(O)c(O)c1-3 [R(-) Apomorphine hydrochloride hemihydrate]	-0.132
CCC(Cc1c(I)cc(I)c(N)c1I)C(=O)O (centres undefined) [Iopanoic acid]	0.0143

SMILES	log
CCC(NC(C)C)C(O)c1ccc(O)c(O)c1 (centres undefined) [Isoetharine mesylate salt]	0.0875
C[C@@H]1[C@H](O)[C@@H](C)/C=C/C=C/C=C/C=C/C=C/C=C/C=C/[C@H](O[C@@H]2O[C@H](C)[C@@H](O)[C@H](N)[C@@H]2O)C[C@@H]2O[C@](O)(C[C@@H](O)C[C@@H](O)[C@H](O)CC[C@@H](O)C[C@@H](O)CC(=O)O[C@H]1C)C[C@H](O)[C@H]2C(=O)O [Amphotericin B]	-0.0173
CO[C@@]1(NC(=O)CSCC#N)C(=O)N2C(C(=O)O)=C(CSc3nnnn3C)CS[C@@H]21 [Cefmetazole sodium salt]	0.114
CC(C)NC[C@H](O)COc1ccc(CC(N)=O)cc1 [(S)-(-)-Atenolol]	0.112
CCOC(=O)C(C)(C)Oc1ccc(Cl)cc1 [Clofibrate]	0.0638
CC(=O)N(O)CCCCCNC(=O)CCC(=O)N(O)CCCCCNC(=O)CCC(=O)N(O)CCCCCN [Deferoxamine mesylate]	-0.482
CCN[C@H]1C[C@H](C)S(=O)(=O)c2sc(S(N)(=O)=O)cc21 [Dorzolamide hydrochloride]	0.123
O=C1Cc2cc(CCN3CCN(c4nsc5ccccc45)CC3)c(Cl)cc2N1 [Ziprasidone  Hydrochloride]	-0.151
CC(C)/N=c1\cc2n(-c3ccc(Cl)cc3)c3ccccc3nc-2cc1Nc1ccc(Cl)cc1 [Clofazimine]	-0.327
O=c1cc(-c2ccc(O)c(O)c2)oc2cc(O)cc(O)c12 [Luteolin]	-1.49
CC(C)(C(=O)c1cccnc1)c1cccnc1 [Metyrapone]	0.135
Nc1c(Br)cc(Br)cc1CN[C@H]1CC[C@H](O)CC1 [Ambroxol hydrochloride]	0.0849
Cn1ccnc1S [Methimazole]	-0.0157
CC(C)(Sc1cc(C(C)(C)C)c(O)c(C(C)(C)C)c1)Sc1cc(C(C)(C)C)c(O)c(C(C)(C)C)c1 [Probucol]	0.0496
CN1CCCC(CC2c3ccccc3Sc3ccccc32)C1 (centres undefined) [Metixene hydrochloride]	-0.54
COc1ccccc1N1CCN(CC(O)COc2cccc3ccccc23)CC1 (centres undefined) [Naftopidil dihydrochloride]	-0.232
CN1CCC(=C2c3ccccc3CC(=O)c3sccc32)CC1 [Ketotifen fumarate]	-0.36
CCN1C(=O)NC(c2ccccc2)C1=O (centres undefined) [Ethotoin]	0.119
CCCN(CCC)C(=O)C(CCC(=O)O)NC(=O)c1ccccc1 (centres undefined) [Proglumide]	0.115
COc1ccc2c(c1)N(C[C@H](C)CN(C)C)c1ccccc1S2 [Methotrimeprazine maleat salt]	-0.275
N#CC(c1ccc(Cl)cc1)c1c(Cl)cc(-n2ncc(=O)[nH]c2=O)cc1Cl (centres undefined) [Diclazuril]	-0.0681
COc1cc(OC)c(C(=O)CCCN2CCCC2)c(OC)c1 [Buflomedil hydrochloride]	-0.0505
Cc1cc(C(=O)NNCc2ccccc2)no1 [Isocarboxazid]	0.0128
CO[C@H]1C[C@H](O[C@H]2[C@H](C)[C@@H](O[C@@H]3O[C@H](C)C[C@H](N(C)C)[C@H]3OC(C)=O)[C@@H](C)C[C@@]3(CO3)C(=O)[C@H](C)[C@@H](OC(C)=O)[C@@H](C)[C@@H](C)OC(=O)[C@@H]2C)O[C@@H](C)[C@@H]1OC(C)=O [Troleandomycin]	0.0769

Some of the entries so far, with bars between the fields:
SMILES | log
CCC(NC(C)C)C(O)c1ccc(O)c(O)c1 (centres undefined) [Isoetharine mesylate salt] | 0.0875
CN1CCC(=C2c3ccccc3CC(=O)c3sccc32)CC1 [Ketotifen fumarate] | -0.36
CO[C@H]1C[C@H](O[C@H]2[C@H](C)[C@@H](O[C@@H]3O[C@H](C)C[C@H](N(C)C)[C@H]3OC(C)=O)[C@@H](C)C[C@@]3(CO3)C(=O)[C@H](C)[C@@H](OC(C)=O)[C@@H](C)[C@@H](C)OC(=O)[C@@H]2C)O[C@@H](C)[C@@H]1OC(C)=O [Troleandomycin] | 0.0769
